These are yes or no findings as the source states them, for the method shown. A result given as binding can be weak or reduced; the word gives no strength.
Target: CXCR4 as expressed on breast tumor cells (MCF-7, MDA MB-231) (human)
Assay: DisplaceMax displacement of ^125I SDF-1α on MCF-7 cells

binding: binds
B1: mouse I-TAC (ligand, UniProt Q9JHH5 22-100, looked up)
chain: FLMFKQGRCLCIGPGMKAVKMAEIEKASVIYPSNGCDKVEVIVTMKAHKRQRCLDPRSKQARLIMQAIEKKNFLRRQNM
